Test results as given in article PMC7343838.
These are yes or no findings as the source states them, for the method shown. In cells and extracts the contact can be indirect. Some results given as binding are weak or reduced against the parent protein; the word gives no strength. Tags and fused reporters may be left off the sequences shown.

Chains of the proteins cited; added tags and fusions are not shown. Residues count along the entry.
UniProt O54921, residues 1-99: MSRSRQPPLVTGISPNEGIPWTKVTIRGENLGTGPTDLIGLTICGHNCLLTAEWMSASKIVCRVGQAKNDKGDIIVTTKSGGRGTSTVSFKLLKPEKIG

Target: GST-Sec5 (Ral-binding domain of rat Sec5, aa 1-99) (rat) (UniProt O54921)
Assay: pull-down; GST-Sec5 (20 ug) on Glutathione Sepharose incubated with cell lysates for 25 min at 4 C; Ral lysis buffer (50 mM Tris pH 7.5, 100 mM NaCl, 4 mM MgCl2, 2 mM EGTA, 1% Triton X-100); cells serum-starved, with or without EGF (100 ng/ml); kB-Ras-proficient and -deficient cells compared; immunoblot; only the target purified

Row | binding | Binder
1 | binds | RalA (endogenous, murine pancreatic ductal cell lines) (protein, UniProt P63321 1-206) MAANKPKGQNSLALHKVIMVGSGGVGKSALTLQFMYDEFVEDYEPTKADSYRKKVVLDGEEVQIDILDTAGQEDYAAIRDNYFRSGEGFLCVFSITEMESFAATADFREQILRVKEDENVPFLLVGNKSDLEDKRQVSVEEAKNRADQWNVNYVETSAKTRANVDKVFFDLMREIRARKMEDSKEKNGKKKRKSLAKRIRERCCIL
2 | binds | flag-RalA F39L (murine, N-terminal 3x flag) (protein, UniProt P63321 1-206) MAANKPKGQNSLALHKVIMVGSGGVGKSALTLQFMYDELVEDYEPTKADSYRKKVVLDGEEVQIDILDTAGQEDYAAIRDNYFRSGEGFLCVFSITEMESFAATADFREQILRVKEDENVPFLLVGNKSDLEDKRQVSVEEAKNRADQWNVNYVETSAKTRANVDKVFFDLMREIRARKMEDSKEKNGKKKRKSLAKRIRERCCIL
